Primary screen of a compound library

Each number is a percent effect as filed.
The record does not define 0% and 100%; most values in the screen are far below 50% and negative numbers occur (in some assays of this library far below -100).
Compounds were drawn at random from those tested, without regard to their results.

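Whole-parasite assay of Trypanosoma brucei over 72 hours; the read-out is not stated. Compounds at 30 µM. Higher reads as stronger inhibition (inferred: compounds with an IC50 in retests scored well above the rest). Values scatter widely below zero; nearly all retest evidence comes from the higher of the two concentrations used. About 64,000 compounds were tested under these conditions; 1.5% (about 940) showed 50% or more at least once.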

| # | Compound | Percent Effect |
|---|---|---|
| 1 | `[H][C@@]12CCC(=O)N(CCNC)[C@]1([H])CCN(c1ncc(F)cn1)C2` | 5.617 |
| 2 | `O=C(O)Cc1cccc(-n2ccnc2-c2ccc(F)c(Cl)c2)c1` | -33.98 |
| 3 | `CCN(Cc1c(F)cccc1F)Cn1nc(C)c2c(C)onc2c1=O` | -15.81 |
| 4 | `CCOc1cc(C)nc(N2CCN(C(=O)c3cscn3)CC2)n1` | -10.06 |
| 5 | `CCc1nn(C)c(Cl)c1CN1C[C@@H](NC(=O)N(C)C)[C@H](C(C)C)C1` | -4.557 |
| 6 | `CCc1ccc(CN2CCc3[nH]nc(C(=O)N4CCNC(=O)C4)c3C2)o1` | -72.01 |
| 7 | `CNC(=O)C1(c2cnccn2)CCCN1C(=O)c1ncccc1C` (stereo unspecified) | 5.142 |
| 8 | `NC(=O)COc1ccc(C2NC(=O)CN2Cc2ccc(Br)cc2)cc1` (stereo unspecified) | -15.28 |
| 9 | `N#CCCN(Cc1cccnc1)C(=O)c1ccc(OCC2CC2)cc1` | -14.92 |
| 10 | `Cc1ccc2c(c1)C(N(C)C)CC21CCN(CCO)CC1.O=C(O)C(F)(F)F.O=C(O)C(F)(F)F` (stereo unspecified) | 0.6815 |
| 11 | `CC(C)Nc1nc2c(c(NC3CC3)n1)CCN(C1CCOCC1)CC2` | -24.76 |
| 12 | `O=C1CCN(C(=O)CCc2cc(Br)cs2)CCN1` | 2.373 |
| 13 | `Cc1cc(C[C@@H]2COC[C@@H]2NC(=O)CN2CCCCCC2)on1` | -3.071 |
| 14 | `[H][C@]12CNC[C@@]1(C(=O)N(C)Cc1cnc(NC)nc1)CN(C(=O)C1CC1)C2` | -13.29 |
| 15 | `NCc1cnn(-c2ccccc2C(=O)NCc2ccccn2)c1` | 5.478 |
| 16 | `CSCCCN1CCCC(Cn2ccnc2)C1` (stereo unspecified) | 14.9 |
| 17 | `CC(C)NC(=O)NC[C@H]1OC[C@@H](NCc2cccs2)[C@@H]1O` | -15.14 |
| 18 | `Cc1cccc(C(=O)N2CCC3(CCN(c4cnn(C)c4)C3=O)C2)n1.O=C(O)C(F)(F)F` (stereo unspecified) | -10.65 |
| 19 | `COc1ccc(-n2ccc(C(=O)N(CCN(C)C)C(C)C)n2)cc1` | -32.22 |
| 20 | `Cc1nc(-c2ccsc2)ccc1C(=O)NCCCN1CCOCC1` | 10.75 |
| 21 | `Cc1ccc(CN2CCOC3(CCN(C(=O)N4CCCC4)CC3)C2)cc1.O=C(O)C(F)(F)F` | -22.86 |
| 22 | `CCN(Cc1ccoc1)C(=O)c1cc(C)c(C)c(S(N)(=O)=O)c1` | 1.429 |
| 23 | `[H][C@]12C[C@H](CNC(=O)C3CCC3)O[C@@]1([H])CN(C(=O)c1ccno1)C2` | -53.7 |
| 24 | `Cc1noc(C)c1CNC(=O)N1CCC(CN2CCC(C)CC2)CC1` | -35.29 |
| 25 | `CNc1cc(C)nc(C2CN(Cc3cncs3)CCO2)c1` (stereo unspecified) | 16.73 |
| 26 | `CN1CCN(c2ncccn2)CC1C(N)=O` (stereo unspecified) | -23.57 |
| 27 | `O=C(Cn1cnc2cc3c(cc21)OCCCO3)NC1CCCC1` | -8.434 |
| 28 | `CN(C)C(=O)CSc1nnc(CCNC(=O)OC(C)(C)C)o1` | -22.27 |
| 29 | `CCn1cc(CN2CCC(O)(Cn3nc(C)ccc3=O)CC2)cn1` | 4.862 |
| 30 | `Cc1cc2nc(C(C)C)cc(N3CCN(c4ccc(O)cc4)CC3)n2n1` | -27.9 |
| 31 | `CNS(=O)(=O)CC(=O)N(Cc1c(F)cccc1F)C1CCCC1` | 21.75 |
| 32 | `O=C(c1cnco1)N1CCCC(Cc2cccc3ncccc23)C1` (stereo unspecified) | 18.64 |
| 33 | `CCc1csc(C2CCCN(C(=O)c3ccc4c(c3)OCO4)C2)n1` (stereo unspecified) | -19.16 |
| 34 | `Cc1nccn1CCCC(=O)N1CCC(Nc2cccnn2)CC1` | 12.22 |
| 35 | `Cc1nnsc1C(=O)N1CC(c2nc3ccccc3[nH]2)C1` | 5.028 |
| 36 | `COCc1cc(NCc2ccccc2OC)ncn1` | -34.81 |
| 37 | `Cc1cnn(CCNCC(O)c2ccc(S(C)(=O)=O)cc2)c1` (stereo unspecified) | -2.662 |
| 38 | `O=C(O)C(F)(F)F.[H][C@@]12CCN(Cc3ccc(C)s3)C[C@]1(COCC(=O)N(C)C)CCO2` | -42.39 |
| 39 | `CC/C=C(/C)C(=O)N1CSCC1C(=O)NC1=NCCS1` (stereo unspecified) | -206.3 |
| 40 | `CCCOc1ccc2c(c1)OCC(CNC1CCc3ncnn3C1)=C2` (stereo unspecified) | -25.59 |
| 41 | `O=C(CC1CN(Cc2ccccc2)CCO1)Nc1ccsc1` (stereo unspecified) | -9.986 |
| 42 | `COc1ccc2c(c1)C(NCCc1c(C)noc1C)CCCO2` (stereo unspecified) | -11.26 |
| 43 | `CCC(CC)c1cc(CNC(=O)N2CCC(CO)CC2)on1` | -41.17 |
| 44 | `O=C(NCc1cc(=O)n2c(n1)CN(CC1CCOC1)CCC2)C1CC1.O=C(O)C(F)(F)F` (stereo unspecified) | -23.6 |
| 45 | `O=C(Cc1ccsc1)N1CCC2(CCCN(CC3CCOCC3)C2)C1` (stereo unspecified) | -137 |
| 46 | `CC1c2ncc(Cn3cncn3)n2CCN1C(=O)Cc1cccs1` (stereo unspecified) | -25.93 |
| 47 | `COCCN(C(=O)c1cc(C)no1)c1ccc(C#N)cc1` | -7.797 |
| 48 | `CCCC(=O)N(CCN1CCOCC1)c1nc2c(OC)ccc(C)c2s1.Cl` | 13.57 |
| 49 | `Cc1nn(C)c(C)c1CCC(=O)NCc1cccnc1OC1CCCC1` | -13.51 |
| 50 | `CC(NCc1cnc(C2CCC2)s1)c1ccc(-n2cccn2)cc1` (stereo unspecified) | 10.99 |
| 51 | `CC(C)COCC(NC(=O)c1ccncc1)c1ccco1` (stereo unspecified) | -18.2 |
| 52 | `O=C1NCCCc2[nH]c(Cc3cccc(F)c3)nc21` | -31.71 |
| 53 | `CN(C)CCNC(=O)c1ccc(OC2CCN(C(=O)CO)CC2)c(Cl)c1` | -23.47 |
| 54 | `COCC(C)(C)NS(=O)(=O)C1CS(=O)(=O)c2ccccc21` (stereo unspecified) | -10.62 |
| 55 | `CC(CN1CCOC1=O)NC(=O)c1cccc(C#N)c1` (stereo unspecified) | -47.01 |
| 56 | `NC(=O)CCNC(=O)Cc1cccc(I)c1` | -17.22 |
| 57 | `CNC(=O)c1cccc(C2CNCCN2C(C)=O)c1` (stereo unspecified) | -33.67 |
| 58 | `C[C@@H]1CN(C2CCN(Cc3cnc(-c4cccs4)nc3)CC2)C[C@H](C)O1` | -33.46 |
| 59 | `O=C(Cn1cccn1)NCC1(c2ccccc2)CC1` | -42.45 |
| 60 | `COc1cc(OC)cc(-c2cc(CN)nc3ccnn23)c1.Cl` | 0.9349 |
| 61 | `COc1ccc(C(=O)C2CCCN(Cc3ccncc3)C2)cc1OC` (stereo unspecified) | 10.55 |

Source: ChEMBL document CHEMBL3988442, “University of Dundee, Small-Polar-MMV Screening Library” (2021).